Test results reported in US20130266605A1, “PEPTIDE INHIBITORS OF CD40L SIGNALING AND USES THEREFOR” (PHYLOGICA LIMITED, priority 2010, published 2013).
Residue numbers refer to the chain shown, from its start. Results are given in words; binding and its absence hold for the method and conditions named. Some entries that bind do so weakly or less than the wild type. One block for each binder: values may come before it.

Target: T1, CD40 ligand (UniProt P29965 108-261, limits assumed)
T1 sequence (looked up): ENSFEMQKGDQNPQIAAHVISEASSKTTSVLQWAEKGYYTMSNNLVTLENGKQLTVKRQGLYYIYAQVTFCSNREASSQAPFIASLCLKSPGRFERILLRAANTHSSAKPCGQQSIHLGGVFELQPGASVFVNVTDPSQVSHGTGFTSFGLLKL
Test: phage display screen on CD40L

B3: C02_40L_0205_0996 (peptide)
peptide: LLGTPQNNAQAEVNLNINIGGPRYVGNYGPDFIYLDDYGFAVSWGWDYDVIRLGNFYFIYRDGYWFCN
binding: binds

B7: M06_40L_0103_0805 (peptide)
peptide: RWDRPWYSPVTNWSPHCRGLD
binding: binds

B11: M06_40L_0103_0812 (peptide)
peptide: LSCSWCSFFPDTKSVSCQD
binding: binds

B13: C02_40L_0704_1098 (peptide)
peptide: LWTLQVTGPDGVETYTTNFLWMCQGYYRHSVGYTPEWPGMADFGGSIVHPQTWPADLDLK
binding: binds

B14: C02_40L_0804_1160 (peptide)
peptide: B13 peptide
binding: binds

B15: C02_40L_0803_1124 (peptide)
peptide: B13 peptide
binding: binds

B16: C02_40L_0804_1174 (peptide)
peptide: B13 peptide with M22T
binding: binds

B17: C02_40L_0803_1136 (peptide)
peptide: B13 peptide
binding: binds

B18: C02_40L_0803_1144 (peptide)
peptide: B13 peptide
binding: binds

B19: C02_40L_0803_1138 (peptide)
peptide: B13 peptide with L59R
binding: binds

B22: C03_40L_0105_0969 (peptide)
peptide: ELLLGVIVDGKEQTIIDDGNNEFGRKVSGDLDGTARFRWYLGNQTAADDYLLESYGEHPQFPWTTQHILKGN
binding: binds

B27: C02_40L_0103_0972 (peptide)
peptide: LYDYPDRSGPWWDAVFYEGNSLQYPSFVPQDVAGLMANTGGPDGFVKWLDHLFDGHYSQSNEPDLLAPYLYIQRNSC
binding: binds

B28: C02_40L_0204_0990 (peptide)
peptide: FKPKQLLGLTATPERMDGLNVQDEFFEGRIAAELRLWEALENDLLCPFHYFGIPDGTDLT
binding: binds

B34: C02_40L_0803_1137 (peptide)
peptide: FWVSDIGWMMGPWTLIGNHTFAGTIFMYEGAPDYPNPDRFWEMIERH
binding: binds

B35: C02_40L_0505_1075 (peptide)
peptide: B34 peptide
binding: binds

B36: C03_40L_0104_0943 (peptide)
peptide: RWYLGNQTAADDYLLESYGEHPQFPWTTQHILK
binding: binds

B37: C03_40L_0105_0966 (peptide)
peptide: B36 peptide
binding: binds

B38: C03_40L_0104_0951 (peptide)
peptide: B36 peptide
binding: binds

B39: C03_40L_0104_0948 (peptide)
peptide: B36 peptide with L32R
binding: binds

B40: C03_40L_0105_0958 (peptide)
peptide: B36 peptide
binding: binds

B41: C03_40L_0105_0959 (peptide)
peptide: B36 peptide
binding: binds

B42: C03_40L_0105_0965 (peptide)
peptide: B36 peptide
binding: binds

B43: C03_40L_0105_0960 (peptide)
peptide: B36 peptide
binding: binds

B44: C03_40L_0104_0945 (peptide)
peptide: B36 peptide
binding: binds

B45: C03_40L_0105_0970 (peptide)
peptide: B36 peptide
binding: binds

B46: C03_40L_0104_0953 (peptide)
peptide: B36 peptide
binding: binds

B47: C03_40L_0105_0967 (peptide)
peptide: B36 peptide with L32H
binding: binds

B48: C03_40L_0104_0944 (peptide)
peptide: B36 peptide
binding: binds

B49: C03_40L_0105_0957 (peptide)
peptide: B36 peptide with L32H
binding: binds

B50: C03_40L_0105_0964 (peptide)
peptide: B36 peptide with G19D
binding: binds

B51: C02_40L_0803_1126 (peptide)
peptide: LAYGKSTEDKQDFLLFHVNLDPHAAQTFEFEVPLWEFGLPDDASVEVEDLLNGNRFTWHGKWQWLELDPQT
binding: binds

B52: C02_40L_0204_0994 (peptide)
peptide: B51 peptide with F28L, E36G, N54D
binding: binds

B53: C02_40L_0304_1027 (peptide)
peptide: LLGTPQNNAQAEVNLNINIGGPRYVGNYGPDFIYLDDYGFAVSWGWDYDVIRL
binding: binds

B54: M06_40L_0103_0810 (peptide)
peptide: LKEIADNANVQKVAFDRYKIKYFKRDMIDCGFDERWIDEHMVSYGQGFEKV
binding: binds

B56: C03_40L_0105_0962 (peptide)
peptide: RWYLGNQTAADDYLLESYGEHPQFPWTTQHILKG
binding: binds

Further lines, results first:

binding: binds
B1: M08_40L_0105_0904 (peptide)
peptide: YKEYNYWEKHKDDKCYWNEKDTKN

binding: binds
B2: M07_40L_0103_0847 (peptide)
peptide: HYTENDHNYYWDDHYNSYYVVQYNHKYYWDYHYDCYYVVEKHC

binding: binds
B4: M07_40L_0104_0874 (peptide)
peptide: LWDVKTYVSDQDGTGWDLVEQYQNKYGMPNPDGTIGKTLWLDYIQ

binding: binds
B5: M09_40L_0105_0930 (peptide)
peptide: RCYYYTENDHNYYWDDHYNSYYVVQYNHKYYWDYHYDCYYVVEKHCKYYYWNTYKEYNYWEKHKDDKYIEGTFKVVTNAAI

binding: binds
B6: M09_40L_0105_0924 (peptide)
peptide: YKEYNYWEKHKDDKCYWNEKDTKN

binding: binds
B8: M09_40L_0105_0922 (peptide)
peptide: YKEYNYWEKHKDDKCYWNDGSTR

binding: binds
B9: M06_40L_0104_0835 (peptide)
peptide: WDRPWYSPVTNWSPHCRGLD

binding: binds
B10: M07_40L_0104_0882 (peptide)
peptide: LLGVIVDGKEQTIIDDGNNEFGRKVSGDLDGTARFRWYLGNQTAADDYLLESYGEHPQFPWTTQHILK

binding: binds
B12: M08_40L_0105_0903 (peptide)
peptide: YKEYNYWEKHKDDKCYW

binding: binds
B20: M07_40L_0104_0866 (peptide)
peptide: PQPEHSTYDFPFPDGSSCAPPGWLGGVPCFLQRYMLHQPDARGTLEPTRT

binding: binds
B21: M09_40L_0105_0934 (peptide)
peptide: CYYYTENDHNYYWDDHYNSYYVVQYNHKYYWDYHYDCYYVVEKHCKYYYWNTYKEYNYWEKHKDDK

binding: binds
B23: M07_40L_0104_0864 (peptide)
peptide: LSGGPDHVPHPEHSTYDFPFPDGSSCAPPGWLGGVPCFLQRYMLHQPDARGTLEPTRT

binding: binds
B24: M07_40L_0104_0896 (peptide)
peptide: B23 peptide with S2G, T58M

binding: binds
B25: M07_40L_0104_0879 (peptide)
peptide: B23 peptide with S2G

binding: binds
B26: M06_40L_0104_0837 (peptide)
peptide: LKEIADNANVQKVAFDRYKIKYFKRDMIDCGFDERWIDEHMVSYGQGFVSMG

binding: binds
B29: M06_40L_0104_0819 (peptide)
peptide: B28 peptide

binding: binds
B30: M06_40L_0104_0822 (peptide)
peptide: PFPDGSSCAPPGWLGGVPCFLQRYMLHQPDARGTLEPTRT

binding: binds
B31: M07_40L_0104_0884 (peptide)
peptide: B30 peptide

binding: binds
B32: M06_40L_0104_0830 (peptide)
peptide: B30 peptide

binding: binds
B33: M07_40L_0103_0860 (peptide)
peptide: B30 peptide

binding: binds
B55: M06_40L_0104_0838 (peptide)
peptide: LSCSWCSFFPDTKSVSCQD
